Data published in PMC6172411, “Development of a Quantitative Assay for the Characterization of Human Collectin-11 (CL-11, CL-K1)” (Frontiers in Immunology, 2018).
Results are given in words; binding and its absence hold for the method and conditions named. Some results given as binding are weak or reduced against the parent protein; the word gives no strength.

Sequences of proteins named here, by UniProt entry; tags and fusion partners are left off. A change or cut given only in a name is not applied to a line headed by its entry. Residues count along the entry.
UniProt P02769, residues 25-607: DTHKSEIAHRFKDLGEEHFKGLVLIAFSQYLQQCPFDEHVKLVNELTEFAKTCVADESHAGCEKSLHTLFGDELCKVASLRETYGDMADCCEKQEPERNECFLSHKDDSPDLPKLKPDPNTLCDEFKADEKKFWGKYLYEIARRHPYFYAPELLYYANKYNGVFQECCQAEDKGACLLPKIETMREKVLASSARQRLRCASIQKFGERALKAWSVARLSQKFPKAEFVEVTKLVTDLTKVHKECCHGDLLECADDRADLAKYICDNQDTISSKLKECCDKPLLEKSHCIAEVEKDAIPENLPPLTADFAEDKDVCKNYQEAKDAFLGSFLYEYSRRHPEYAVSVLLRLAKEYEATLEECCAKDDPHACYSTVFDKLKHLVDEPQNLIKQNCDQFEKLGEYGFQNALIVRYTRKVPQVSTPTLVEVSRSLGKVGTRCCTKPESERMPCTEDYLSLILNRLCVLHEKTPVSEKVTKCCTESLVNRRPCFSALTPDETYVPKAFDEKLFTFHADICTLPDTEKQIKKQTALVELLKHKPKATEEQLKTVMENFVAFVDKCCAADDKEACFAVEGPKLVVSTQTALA
UniProt Q9BWP8, residues 26-271: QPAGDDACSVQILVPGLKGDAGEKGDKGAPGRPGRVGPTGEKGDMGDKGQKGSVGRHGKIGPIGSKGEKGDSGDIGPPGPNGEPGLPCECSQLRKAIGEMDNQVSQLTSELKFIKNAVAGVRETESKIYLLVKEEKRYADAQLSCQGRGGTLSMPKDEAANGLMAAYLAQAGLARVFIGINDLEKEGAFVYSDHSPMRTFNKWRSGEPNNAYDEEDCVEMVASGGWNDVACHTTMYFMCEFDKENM

Assays:
[1] = molecular target: T1, native collectin-10 (CL-10) from human plasma (human (endogenous in plasma)) (UniProt Q9Y6Z7); assay: SEC; Superdex 200 HR 10/30, 0.5 ml/min, RT, PBS 2 mM EDTA; pooled blood sample; CL-11 and CL-10/11 in the fractions by sandwich ELISA, confirmed by western blot after TCA precipitation
T1 sequence: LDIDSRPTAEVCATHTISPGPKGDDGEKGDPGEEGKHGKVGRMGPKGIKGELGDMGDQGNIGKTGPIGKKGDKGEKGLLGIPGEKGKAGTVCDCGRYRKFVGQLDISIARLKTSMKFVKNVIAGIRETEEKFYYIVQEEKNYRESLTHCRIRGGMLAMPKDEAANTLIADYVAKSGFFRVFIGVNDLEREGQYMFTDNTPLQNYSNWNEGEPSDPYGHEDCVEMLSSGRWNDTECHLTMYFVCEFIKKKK

[2] = molecular target: T1, native collectin-10 (CL-10) from human plasma (human (endogenous in plasma)); assay: ELISA; sandwich ELISA on EDTA plasma 1:40 in sample buffer (TBS-Tw-EDTA, 0.1% bovine serum): mAb anti-CL-10 (HM2356) coated as capture, biotinylated anti-CL-11 Hyb-15 as detection; healthy donors and SIRS patients
[3] = molecular target: BSA (bovine (from the name BSA)) (UniProt P02769); assay: ELISA; BSA coated in two-fold dilutions from 10 μg/ml in PBS; rCL-11 1 μg/ml in TBS-Tw-Ca, TBS-Tw-EDTA or TBS-Tw-Mg-EGTA, 2 h RT; detection with Hyb-15 and streptavidin-HRP

binding [1]	binding [2]	Substance	binding [3]
binds	binds	native collectin-11 (CL-11) from human serum and plasma (from UniProt Q9BWP8 26-271)	
		recombinant CL-11 (rCL-11), in-house, produced in Flp-In CHO cells (from UniProt Q9BWP8-1 26-271)	no binding (tested: rCL-11 1 μg/ml; BSA coated from 10 μg/ml)
